Results published in the supplement of paper PMC7666118.
Some of the results follow.

Biological target: HSP90AA1 (UniProt P07900)
Test: dose-dependent thermal stabilisation call (2D-TPP, DLPTP, 10% FDR) (binary (1 = stabilised)); higher = stabilised by the compound
Settings: system: HL-60 intact cells; concentration range 0.04-10 µM

Compound: COc1ccc(Cn2ccc3ccc(C(=O)NO)cc32)cc1
- dose-dependent thermal stabilisation call: inactive: 0
